From PubChem BioAssay record AID1053133 (Broad Institute, 2014).

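Vaccinia-infected cells with a two-color viral stage reporter; Venus fluorescence read on a plate reader; the cell line is not named here; timing not stated here.
The test concentration is not given here.
Percent change in Venus reporter signal; lower (more negative) values mean stronger inhibition of that viral stage.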

Values are in %.
How 0% and 100% were set is not given here.
Common to all entries: measured here: Venus reporter, other viral stage.
Part of the compounds only, not a random draw; the main read-out is not listed here.

With C[C@H]1CN([C@@H](C)CO)C(=O)Cc2cc(NC(=O)CCCCCC(=O)Nc3ccccc3N)ccc2O[C@H]1CN(C)CC1CCCCC1 the assay gave activity change (Venus) -38.77%.
With C[C@H]1CN([C@@H](C)CO)S(=O)(=O)c2ccc(C3=CCCCC3)cc2O[C@@H]1CN(C)C(=O)C1CCC1 the assay gave activity change (Venus) -35.26%.
With Cc1ccc(S(=O)(=O)N(C)C[C@@H]2OCc3ccccc3-c3c(n(C)c4ccccc34)C(=O)N([C@@H](C)CO)C[C@@H]2C)cc1 the assay gave activity change (Venus) -38.95%.
With COc1ccc(-c2ccc3c(c2)[C@@H]2[C@@H](CCN2C(=O)c2ccc4c(c2)OCO4)[C@@H](CO)N3C)cc1 the assay gave activity change (Venus) -25.47%.
With C[C@@H]1CN([C@@H](C)CO)C(=O)c2cc(NC(=O)Nc3ccc(F)cc3)ccc2O[C@@H](C)CCCCO[C@H]1CN(C)CC1CCCCC1 the assay gave activity change (Venus) -55.59%.
With CCCC#Cc1ccc2c(c1)O[C@@H](CN(C)Cc1ccc3c(c1)OCO3)[C@H](C)CN([C@@H](C)CO)S2(=O)=O the assay gave activity change (Venus) -58.33%.
With CCCNC(=O)N(C)C[C@H]1Oc2cc(C#Cc3cccc(F)c3)ccc2S(=O)(=O)N([C@@H](C)CO)C[C@H]1C the assay gave activity change (Venus) -49.24%.
With COc1ccccc1NC(=O)N1CCCCN2[C@H](CO)[C@H](c3ccc(C#CC4CC4)cc3)[C@H]2C1 the assay gave activity change (Venus) -13.98%.
With C[C@H]1CCCCO[C@@H](CN(C)Cc2ccccc2)[C@@H](C)CN([C@@H](C)CO)C(=O)c2cc(NS(=O)(=O)c3ccccc3)ccc2O1 the assay gave activity change (Venus) -33.73%.
With Cc1ccc(-c2ccc3c(c2)O[C@@H](CN(C)C(=O)Nc2ccccc2)[C@@H](C)CN([C@H](C)CO)S3(=O)=O)cc1 the assay gave activity change (Venus) -73.16%.
With COc1ccc(NC(=O)N2CC(=O)N3[C@@H](CO)[C@@H](c4ccc(/C=C/c5ccccc5)cc4)[C@@H]3C2)cc1 the assay gave activity change (Venus) -76.57%.
With C[C@@H]1CN([C@@H](C)CO)C(=O)c2cc(C#CCN(C)C)cnc2O[C@H]1CN(C)Cc1ccc(-c2ccccc2)cc1 the assay gave activity change (Venus) -69.01%.
With C[C@@H]1CCCCO[C@@H](CN(C)S(=O)(=O)c2ccc(Cl)cc2)[C@H](C)CN([C@H](C)CO)C(=O)c2cc(NS(=O)(=O)c3ccccc3)ccc2O1 the assay gave activity change (Venus) -22.57%.
With C=CCN1Cc2ccccc2[C@@H]2OC(c3ccc(OCCCO)cc3)=N[C@]2(Cc2ccccc2)C1=O the assay gave activity change (Venus) -47.98%.
With O=C(Cc1ccccn1)N1CCCCN2[C@@H](CO)[C@@H](c3ccc(C#Cc4ccccc4)cc3)[C@@H]2C1 the assay gave activity change (Venus) -47.93%.
With C[C@H](CO)N1C[C@H](C)[C@H](CN(C)S(=O)(=O)c2ccc(C#N)cc2)Oc2ncc(C#Cc3cccc(F)c3)cc2C1=O the assay gave activity change (Venus) -27.4%.
With C/C=C/c1ccc2c(c1)O[C@H](CN(C)Cc1cccc(F)c1)[C@@H](C)CN([C@H](C)CO)S2(=O)=O the assay gave activity change (Venus) -41.45%.
With C[C@@H]1CCCCO[C@@H](CN(C)C(=O)NC2CCCCC2)[C@H](C)CN([C@H](C)CO)C(=O)c2cc(NS(=O)(=O)c3ccc(Cl)cc3)ccc2O1 the assay gave activity change (Venus) -48.85%.

The first 2 entries again:

structure	activity change (Venus) (%)
C[C@H]1CN([C@@H](C)CO)C(=O)Cc2cc(NC(=O)CCCCCC(=O)Nc3ccccc3N)ccc2O[C@H]1CN(C)CC1CCCCC1	-38.77
C[C@H]1CN([C@@H](C)CO)S(=O)(=O)c2ccc(C3=CCCCC3)cc2O[C@@H]1CN(C)C(=O)C1CCC1	-35.26